# Reference: the supplement of paper PMC6411743
# ± gives the standard deviation of the averaged measurements. The list shows a part of the results.
# Target: T1, C9JFB2 and related entries (UniProt Q9Y548)
# T1 sequence (whole entry): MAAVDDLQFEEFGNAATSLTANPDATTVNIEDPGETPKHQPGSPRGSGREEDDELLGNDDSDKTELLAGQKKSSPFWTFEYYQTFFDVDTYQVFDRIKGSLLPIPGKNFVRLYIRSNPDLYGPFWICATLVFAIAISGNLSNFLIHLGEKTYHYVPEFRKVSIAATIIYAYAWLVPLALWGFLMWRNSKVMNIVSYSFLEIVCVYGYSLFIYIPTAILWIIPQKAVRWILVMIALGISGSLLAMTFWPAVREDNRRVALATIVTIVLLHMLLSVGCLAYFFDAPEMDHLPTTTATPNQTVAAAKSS
# Assay: NP40-soluble protein abundance relative to vehicle (solubility fold change) (ratio); higher = more soluble protein in presence of GTP
# Procedure: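 Solubility proteome profiling in Jurkat crude lysate. Lysate was treated with Mg-GTP (0.1-10 mM) for 10 min at room temperature and 3 min at 37 °C, then solubilised with 0.8% NP40 and benzonase, followed by ultracentrifugation. Proteins were quantified by TMT10 LC-MS/MS; the value is the NP40-soluble abundance relative to the NP40-processed vehicle, from 3 independent experiments.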
smiles,measurement,setting,value
Nc1nc2c(ncn2[C@@H]2O[C@H](COP(=O)(O)OP(=O)(O)OP(=O)(O)O)[C@@H](O)[C@H]2O)c(=O)[nH]1 [guanosine triphosphate],NP40-soluble protein abundance,concentration: 0.1mM,0.964 ± 0.041
same,NP40-soluble protein abundance,concentration: 0.5mM,1.02 ± 0.017
same,NP40-soluble protein abundance,concentration: 1mM,0.98 ± 0.1
same,NP40-soluble protein abundance,concentration: 2mM,0.935 ± 0.04
same,NP40-soluble protein abundance,concentration: 4mM,0.918 ± 0.094
same,NP40-soluble protein abundance,concentration: 6mM,0.905 ± 0.087
same,NP40-soluble protein abundance,concentration: 8mM,0.896 ± 0.15
same,NP40-soluble protein abundance,concentration: 10mM,0.918 ± 0.048
